Record: PubChem BioAssay AID1224830 (NIAID, 2016)
Aim: 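Host factors that control LPS-induced TNF expression in human macrophages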 (primary screen). Cells: human THP-1 monocytic leukaemia cells, TNF dual-luciferase reporter clone, PMA-differentiated to macrophage-like cells. Knock-down reagent: siRNA pool against human genes, 50 nM. Timing: LPS for 4 h, given about 3 days after siRNA transfection. Treatment: bacterial LPS (TLR4 ligand), 10 ng/ml. Measurement: 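TNF firefly reporter luminescence divided by renilla, normalised to the plate median, then turned into a robust z-score for each replicate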. Direction: TNF reporter robust z-score: higher = stronger TNF reporter response to LPS. Call rule: 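a well is active when its z-score exceeds 2.8 or falls below -1.5; control wells carry no call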.
Here is a random part of about 18,000 reagents tested. About 2,900 of all reagents (16%) were called active. 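Calls are made per well; low scores hint the gene aids the LPS response, high scores that it dampens it.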 A number with no mark means an inactive call. Repeated entries: four replicate wells of each siRNA pool. No sequences are given here.

target gene | TNF reporter robust z-score
ZNF485 | 1.66
ZNF485 | 2.78
ZNF485 | -0.18
ZNF485 | 0.69
NT5M | -1.35
NT5M | -0.96
NT5M | -1.74 (active)
NT5M | -1.63 (active)
IGFBPL1 | 0.08
IGFBPL1 | 0.46
IGFBPL1 | 1.3
IGFBPL1 | 2.39
MYLK3 | 0.39
MYLK3 | 0.62
MYLK3 | 0.72
EPHA6 | -1.48
EPHA6 | 0.1
EPHA6 | -0.76
EPHA6 | -1.44
BRAP | -1.18
BRAP | -0.32
BRAP | -1.04
BRAP | -0.41
OTX1 | -0.76
OTX1 | -0.7
OTX1 | -0.69
OTX1 | -0.73
CACNB4 | -1.04
CACNB4 | -0.95
CACNB4 | -1.36
CACNB4 | -0.45
ASB18 | 1.42
ASB18 | 1.36
ASB18 | -0.19
ASB18 | 2.55
KLHL21 | 1.47
KLHL21 | 0.2
KLHL21 | 0.46
KLHL21 | 0.78
THSD4 | -0.42
THSD4 | -0.35
THSD4 | 0.13
THSD4 | 1
GFM1 | 0.85
GFM1 | 0.07
GFM1 | -0.24
GFM1 | 0.64
KIF17 | 1.67
KIF17 | 3.68 (active)
KIF17 | 2.59
KIF17 | 2.79
INPP5B | 0.29
INPP5B | 0.74
INPP5B | -0.48
INPP5B | 2.24
PSME4 | -0.69
PSME4 | -0.17
PSME4 | -0.66
PSME4 | -0.04
TYRO3 | 0.41
TYRO3 | -0.18
TYRO3 | 0.45
TYRO3 | 0.55
EPHA4 | -0.34
EPHA4 | 0.92
EPHA4 | -0.49
EPHA4 | 0.28
ANKFN1 | 0.91
ANKFN1 | 0.96
ANKFN1 | -0.31
ANKFN1 | 0.98

Reformatted: entries from further up.
{"target gene":"NT5M","TNF reporter robust z-score":-0.96}
{"target gene":"NT5M","TNF reporter robust z-score":"-1.74 (active)"}
{"target gene":"NT5M","TNF reporter robust z-score":"-1.63 (active)"}
{"target gene":"IGFBPL1","TNF reporter robust z-score":0.08}
{"target gene":"IGFBPL1","TNF reporter robust z-score":0.46}
{"target gene":"IGFBPL1","TNF reporter robust z-score":1.3}
{"target gene":"IGFBPL1","TNF reporter robust z-score":2.39}
{"target gene":"MYLK3","TNF reporter robust z-score":0.39}
{"target gene":"MYLK3","TNF reporter robust z-score":0.62}
{"target gene":"MYLK3","TNF reporter robust z-score":0.72}
{"target gene":"EPHA6","TNF reporter robust z-score":-1.48}
{"target gene":"EPHA6","TNF reporter robust z-score":0.1}
{"target gene":"EPHA6","TNF reporter robust z-score":-0.76}
{"target gene":"EPHA6","TNF reporter robust z-score":-1.44}
{"target gene":"BRAP","TNF reporter robust z-score":-1.18}
{"target gene":"BRAP","TNF reporter robust z-score":-0.32}
{"target gene":"BRAP","TNF reporter robust z-score":-1.04}
{"target gene":"BRAP","TNF reporter robust z-score":-0.41}

Additional results follow.
target gene | TNF reporter robust z-score
OR4L1 | -0.31
OR4L1 | 0.98
OR4L1 | 1.44
OR4L1 | 0.52
FFAR4 | -1.53 (active)
FFAR4 | -0.81
FFAR4 | -1.49
FFAR4 | -1.61 (active)
CPD | 0.66
CPD | 0.45
CPD | 0.08
CPD | 0.5
DENND5A | 7.31 (active)
DENND5A | 3.5 (active)
DENND5A | 1.35
DENND5A | 1.8
GOLGA8B | -1.27
GOLGA8B | -1.07
GOLGA8B | -0.72
GOLGA8B | -0.9
NUDCD3 | -0.12
NUDCD3 | 0.38
NUDCD3 | 0.04
NUDCD3 | 1.2
HCRTR2 | -1.51 (active)
HCRTR2 | -0.07
HCRTR2 | -0.5
HCRTR2 | 0.82
PPP1R1C | -0.31
PPP1R1C | 0.47
PPP1R1C | 1.32
PPP1R1C | -0.06
MTCL3 | 0.06
MTCL3 | -0.76
MTCL3 | 0.72
MTCL3 | 0.38
ARHGEF19 | -1.28
ARHGEF19 | -1.11
ARHGEF19 | -1.07
ARHGEF19 | -0.63
